# In PubChem BioAssay AID1347423 (Functional Genomics Laboratory (NCATS/FGL), 2020):
# Hit rate of the full screen: of about 52,000 sequences, about 210 (0.4%) were called active.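 The calls were made as follows: active = gene whose silencing raises cell survival under the drug, median off-target-corrected z-score across its silencing RNAs 2 or more; inactive = the rest.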 The list shows a part of the results.
# Experiment: Resistance to Poly (ADP-Ribose) Polymerase inhibitor: Gene Identification via Genome-wide siRNA Screen
# Conditions: mouse BRCA2 R2336H ES cells, olaparib, CellTiter-Glo viability; hits give high values
# Outline: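 Mouse BRCA2 R2336H ES cells were reverse-transfected with siRNA (20 nM final), treated at 48 h with 500 nM olaparib, and read by CellTiter-Glo after 72 h. Scores: MAD-based z per siRNA, median per gene, seed off-target correction.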
row,Sequence,z-score
1,GCCACUCAGAGUGUGGAGUTT against Ddx20,inactive: -0.049
2,GGCAAUCCAUUUCUCAGUCTT against Tmprss5,inactive: -0.137
3,CCAGCGGGAGACUUACGAATT against LOC380969,inactive: 0.188
4,GGAAACCUGCUCAUAGUGGTT against Olfr1188,inactive: -0.295
5,GGAGAGACCUAAAUCUCACTT against Gp9,inactive: 0.0694
6,GGAUAUUAUCUUCAGACCATT against 9.83E+11,inactive: -0.375
7,GGUUCACAGAAAUGGAUGATT against A230056M16,inactive: -0.423
8,CCUAAUGUUUACCACAGACTT against Mrps25,inactive: -0.28
9,GGAGCUUAGACAAAAAGCCTT against 5830435K17Rik,inactive: -0.51
10,GGAGAUCUUGAGAUUGUAUTT against 5730590G19Rik,inactive: 1.01
11,GGGAAAAGAGCUGGAUUCUTT against AI415282,inactive: 1.15
12,GGCCCUUACUUCCACAUCATT against D11Wsu99e,inactive: -0.78
13,GGACAAAGCAAUCCACAUCTT against 2410080P20Rik,inactive: -1.77
14,CCUCGUUCCUUUGAAAUCATT against Gfi1,inactive: 1.73
15,GCUUUUCGCCCUGUGCUUATT against DXImx49e,inactive: -1.03
16,GGCUCUGGGAAUGACGACATT against Zbp1,inactive: 0.554
17,GGGUUGAUGUGGUAGAUGATT against Zfp185,inactive: -0.81
18,CGACCUGAGUGAAAAGAAGTT against Stk32c,inactive: -1.07
19,GCUACGCAUUGAGGAGCUATT against Pkn1,inactive: -0.213
20,GCCUGUUCGGGAACCUUAUTT against Olfr299,inactive: -2.69
21,GGUGAGGACCUUCUUCCUUTT against B3galt5,inactive: -0.0632
22,CGAUAUCCUGAAACUGCCUTT against Tbx3,inactive: 0.556

row,Sequence,z-score
1,CCAAAUGACAGCUAUGGCCTT against 1700012P16Rik,inactive: 0.812
2,AGACUGUAAAAGUCUUGUCTT against Ftl2,inactive: -1.03
3,GGAAUGUGAUGAUGUGAUUTT against 2810423O19Rik,inactive: -0.0671
4,GGAACUUUGAACUGAAGGGTT against Upb1,inactive: -0.651
5,GGGUAUCCCGCUUUUCUACTT against Slc6a18,inactive: -0.194
6,GGAAUUCGUAAUCACGCAATT against V1rd2,inactive: 2.83
7,CCUGAGUCAGAUUCAUUUATT against B430203M17Rik,inactive: 0.119
8,GGAGGAGGGAAUCAGAGAATT against 3830402I07Rik,inactive: -0.616
9,GGACAAAUUGGUUGUGCUATT against Olfr457,inactive: -0.641
10,GGCAACACUGUGGCUAAGUTT against 0710001P18Rik,inactive: -1.03
11,GGCCAUUCCUUUUCUGGAATT against Aim1,inactive: 1.2
12,GCCCAACAGCUACACCUUATT against Clra,inactive: -0.466
13,CCAGAUCAUCGUGCAGAAUTT against E4f1,inactive: -2.03
14,GCAGGAUCUGCCUAAGUCGTT against Arl7,inactive: -0.799
15,GGUCGGAAGCUGGUCUUUUTT against AW548124,inactive: 0.0368
16,CGUAUCCAAAAGUGAUUUCTT against Tigd5,inactive: -0.0581
17,GCGCAUUCUCCAUUAAACATT against Cyp4f16,inactive: -0.285
18,CCAAAGAGUUAUCGUUCUATT against 4933401I19Rik,inactive: 0.456
19,CCUUGGUGGUCUGAAAUAATT against BC013476,inactive: -0.936
20,GGAAUACCACAUGCUUUUGTT against 1110057K04Rik,inactive: -0.0543
21,GGAGUCUUGUCCAUGUAAUTT against Zfp52,inactive: -0.357
22,GCAGUCGAGCAUGAAACAATT against Atp5f1,inactive: -0.0174

# Quoted from the listing.
# z-score with GCCCAACAGCUACACCUUATT against Clra is entered as inactive: -0.466
# z-score with GGCAAUCCAUUUCUCAGUCTT against Tmprss5 is entered as inactive: -0.137
# z-score with CCAAAGAGUUAUCGUUCUATT against 4933401I19Rik is entered as inactive: 0.456
# z-score with CCUAAUGUUUACCACAGACTT against Mrps25 is entered as inactive: -0.28

# Next part.

row,Sequence,z-score
1,GGCCUUGAAGCAGAAGUCUTT against Gfra1,inactive: 1.3
2,GCUCUACAUGUAGACCUGCTT against Mopt,inactive: 0.744
3,CGGUCACAGAGGAAGAAUATT against Ank2,inactive: 1.45
4,GCAAUCAUGCCCAAGAAAUTT against Ches1,inactive: 0.863
5,GGGUUAUGAAGAGAAACUUTT against C430014D17Rik,inactive: -0.931
6,CGAACAGGUAAAUGUGAGCTT against 4921511D23Rik,inactive: -0.185
7,GGCCUGACCUUCAACAAGATT against Gab2,inactive: -1.97
8,GCUACUAAACAAGCCGGCATT against 4121402D02Rik,inactive: -1.64
9,CCGUGAUCCCUUUUCACCATT against 6030445D17Rik,inactive: -0.541
10,GGAAGAGCUGGACUUCUUCTT against Hoxb2,inactive: 0.282
11,GGAAUCUAGCUGAGAAAAUTT against Lepr,inactive: -0.29
12,GGAAAUCCAGAAGCGUGUGTT against Gtpbp3,inactive: -1.32
13,GGAAAGUCUCCAAGUUUGUTT against 9130017C17Rik,inactive: -0.154
14,GGGAGAGAUGUCAUUGCACTT against Ddx48,inactive: -3.44
15,GGGUAUCAGUACCAAUGUUTT against 9130022A01Rik,inactive: -0.798
16,GGUCCUGGAAGAUCCUUCUTT against Slc30a6,inactive: 0.184
17,GGACUUGGAAGAAGUAUAATT against Rbl2,inactive: -0.0509
18,GGGAUCCAUCCUUAUUGUUTT against Ybx2,inactive: 0.681
19,GGCUGAAAGAUUGUAUUGATT against ORF5,inactive: 0.988
20,GGAGGUUCAACAUGAAAAUTT against B230217C06Rik,inactive: -0.96
21,GCCCACACUUGCUAAUGAATT against Gm347,inactive: -1
